Source: paper PMC9657364
Results are given in words; binding and its absence hold for the method and conditions named. Binding seen in cells or lysates may run through a third protein. A yes stands for co-enrichment or nearness to the bait. Other partners may have been found.

Sequences of proteins named here, by UniProt entry; tags and fusion partners are left off.
UniProt Q14258: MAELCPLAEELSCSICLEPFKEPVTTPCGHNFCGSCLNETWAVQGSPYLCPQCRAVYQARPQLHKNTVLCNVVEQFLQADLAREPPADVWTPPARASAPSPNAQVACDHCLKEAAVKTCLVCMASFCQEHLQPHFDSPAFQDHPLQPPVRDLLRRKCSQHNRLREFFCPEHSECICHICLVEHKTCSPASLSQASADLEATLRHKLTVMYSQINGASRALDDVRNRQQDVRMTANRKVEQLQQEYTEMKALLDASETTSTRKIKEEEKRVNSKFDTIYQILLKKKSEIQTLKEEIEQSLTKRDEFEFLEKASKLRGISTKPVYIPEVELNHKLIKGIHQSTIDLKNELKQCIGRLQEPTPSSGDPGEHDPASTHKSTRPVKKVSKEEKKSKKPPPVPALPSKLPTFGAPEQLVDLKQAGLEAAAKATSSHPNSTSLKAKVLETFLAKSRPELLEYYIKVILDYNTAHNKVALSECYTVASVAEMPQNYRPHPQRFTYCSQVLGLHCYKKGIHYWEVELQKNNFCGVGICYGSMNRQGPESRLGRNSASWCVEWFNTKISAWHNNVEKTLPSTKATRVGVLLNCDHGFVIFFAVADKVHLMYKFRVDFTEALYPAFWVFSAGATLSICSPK

Molecular target: T1, Receptor interacting protein serine/threonine kinase 4 (RIPK4) (human (endogenous in BGC-823 and AGS)) (UniProt P57078)
T1 sequence: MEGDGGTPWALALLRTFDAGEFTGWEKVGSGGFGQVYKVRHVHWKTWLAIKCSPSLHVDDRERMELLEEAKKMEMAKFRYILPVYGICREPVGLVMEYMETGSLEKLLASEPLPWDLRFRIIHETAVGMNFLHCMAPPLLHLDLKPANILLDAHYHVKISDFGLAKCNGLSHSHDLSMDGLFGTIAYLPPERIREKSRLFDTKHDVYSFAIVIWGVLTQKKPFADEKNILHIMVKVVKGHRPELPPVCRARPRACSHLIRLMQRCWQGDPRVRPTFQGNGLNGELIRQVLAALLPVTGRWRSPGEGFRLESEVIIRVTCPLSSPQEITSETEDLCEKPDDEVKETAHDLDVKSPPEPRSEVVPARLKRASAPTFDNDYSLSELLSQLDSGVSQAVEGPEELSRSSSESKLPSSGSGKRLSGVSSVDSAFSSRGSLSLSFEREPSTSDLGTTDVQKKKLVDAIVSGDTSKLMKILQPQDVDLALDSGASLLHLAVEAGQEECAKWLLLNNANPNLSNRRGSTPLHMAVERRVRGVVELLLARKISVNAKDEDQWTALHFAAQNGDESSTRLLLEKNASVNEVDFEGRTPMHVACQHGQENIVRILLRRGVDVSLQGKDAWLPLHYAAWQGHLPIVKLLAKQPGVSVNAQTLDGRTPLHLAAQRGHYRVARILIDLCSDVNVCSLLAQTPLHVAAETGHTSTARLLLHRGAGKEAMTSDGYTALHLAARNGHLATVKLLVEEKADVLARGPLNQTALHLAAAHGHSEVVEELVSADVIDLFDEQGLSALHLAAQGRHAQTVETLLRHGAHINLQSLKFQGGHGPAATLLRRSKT
Experiment: affinity purification with mass spectrometry; RIPK4 antibody used to precipitate endogenous RIPK4 from control (NC) and si-LINC01537 AGS and BGC-823 cells; silver staining, mass spectrometry, Western blot of the candidate E3 enzyme

binding: binds
Substance: TRIM25 (from UniProt Q14258 1-630)
